These are yes or no findings as the source states them, for the method shown. Binding seen in cells or lysates may run through a third protein. Some entries that bind do so weakly or less than the wild type.

By UniProt entry, the sequences of proteins in these tests, tags left out.
UniProt P42866: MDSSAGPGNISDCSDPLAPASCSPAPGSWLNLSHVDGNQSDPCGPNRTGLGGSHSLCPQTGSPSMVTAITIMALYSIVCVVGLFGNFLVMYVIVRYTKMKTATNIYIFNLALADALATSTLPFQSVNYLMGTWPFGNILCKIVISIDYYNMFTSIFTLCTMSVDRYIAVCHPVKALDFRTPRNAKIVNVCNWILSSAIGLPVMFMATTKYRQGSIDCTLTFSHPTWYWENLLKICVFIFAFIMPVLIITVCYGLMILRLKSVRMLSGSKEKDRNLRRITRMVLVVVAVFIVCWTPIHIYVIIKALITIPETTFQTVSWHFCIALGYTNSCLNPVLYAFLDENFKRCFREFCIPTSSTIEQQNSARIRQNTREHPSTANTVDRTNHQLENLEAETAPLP
UniProt P08752: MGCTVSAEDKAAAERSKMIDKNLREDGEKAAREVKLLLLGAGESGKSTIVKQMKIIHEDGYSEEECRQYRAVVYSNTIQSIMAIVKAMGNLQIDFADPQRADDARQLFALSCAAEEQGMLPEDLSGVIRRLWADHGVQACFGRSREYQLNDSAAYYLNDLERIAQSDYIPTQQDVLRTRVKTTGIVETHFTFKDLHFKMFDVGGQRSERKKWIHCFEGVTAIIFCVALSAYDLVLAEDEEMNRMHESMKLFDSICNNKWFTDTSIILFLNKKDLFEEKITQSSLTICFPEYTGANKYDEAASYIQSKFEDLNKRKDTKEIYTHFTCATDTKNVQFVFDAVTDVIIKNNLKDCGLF

Test [1] addresses Mu-opioid receptor (mouse (endogenous in PAG synaptosomes)) (UniProt P42866). The test can be described thus: co-IP; MOR or RGSZ2 immunoprecipitated with biotinylated affinity-purified IgGs from sonicated PAG synaptosomal membranes (50 mM Tris-HCl pH 7.7, 50 mM NaCl, 1% Nonidet P-40) of mice at intervals after icv 10 nmol morphine; some mice given LNNA or naltrindole before morphine; co-precipitated proteins detected by western blot. In general terms: In western blotting, separated proteins are transferred to a membrane and probed.

Test [2] addresses T1, RGSZ2 (mouse (endogenous in PAG synaptosomes)) (UniProt Q9QZB0).
T1 sequence: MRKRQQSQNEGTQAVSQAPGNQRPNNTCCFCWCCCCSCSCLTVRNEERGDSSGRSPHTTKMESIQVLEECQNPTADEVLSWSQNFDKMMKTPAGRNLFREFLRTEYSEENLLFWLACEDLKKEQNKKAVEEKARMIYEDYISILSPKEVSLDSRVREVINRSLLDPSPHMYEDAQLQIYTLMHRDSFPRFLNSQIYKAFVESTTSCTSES
Described as above.

Regarding Gαi2 (from UniProt P08752 1-355), the binding result in test [1] and in test [2] was “binds” in each case.

(Values after publication PMC2890584.)
